Measured values from article PMC9544816.
Results are given in words; binding and its absence hold for the method and conditions named. In cells and extracts the contact can be indirect. Some binding calls cover weakened binding; strength is not graded here.

The chains behind the UniProt entries cited, without tags or fusion partners. Residues count along the entry.
UniProt Q9QUK6, residues 26-835: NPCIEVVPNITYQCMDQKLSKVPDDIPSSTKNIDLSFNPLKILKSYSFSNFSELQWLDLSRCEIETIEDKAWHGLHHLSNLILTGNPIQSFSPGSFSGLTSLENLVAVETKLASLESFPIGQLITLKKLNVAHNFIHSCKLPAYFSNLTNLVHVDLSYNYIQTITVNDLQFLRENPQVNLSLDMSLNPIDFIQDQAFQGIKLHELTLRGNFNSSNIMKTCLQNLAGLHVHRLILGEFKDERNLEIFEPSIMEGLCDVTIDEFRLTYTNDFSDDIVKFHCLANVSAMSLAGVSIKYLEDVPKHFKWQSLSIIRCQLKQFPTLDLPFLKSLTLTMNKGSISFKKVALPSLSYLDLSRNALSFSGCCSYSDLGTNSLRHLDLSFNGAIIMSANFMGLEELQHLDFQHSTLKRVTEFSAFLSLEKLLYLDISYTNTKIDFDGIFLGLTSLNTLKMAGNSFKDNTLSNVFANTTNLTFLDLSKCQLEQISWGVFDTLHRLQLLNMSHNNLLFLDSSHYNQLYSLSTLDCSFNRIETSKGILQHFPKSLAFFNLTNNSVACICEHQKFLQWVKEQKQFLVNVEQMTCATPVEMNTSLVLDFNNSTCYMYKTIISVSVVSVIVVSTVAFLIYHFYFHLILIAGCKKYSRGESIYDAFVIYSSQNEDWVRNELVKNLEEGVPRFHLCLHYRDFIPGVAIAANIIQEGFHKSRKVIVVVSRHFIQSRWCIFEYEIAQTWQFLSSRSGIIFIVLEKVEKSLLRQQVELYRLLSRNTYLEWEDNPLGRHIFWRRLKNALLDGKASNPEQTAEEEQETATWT
UniProt P25911: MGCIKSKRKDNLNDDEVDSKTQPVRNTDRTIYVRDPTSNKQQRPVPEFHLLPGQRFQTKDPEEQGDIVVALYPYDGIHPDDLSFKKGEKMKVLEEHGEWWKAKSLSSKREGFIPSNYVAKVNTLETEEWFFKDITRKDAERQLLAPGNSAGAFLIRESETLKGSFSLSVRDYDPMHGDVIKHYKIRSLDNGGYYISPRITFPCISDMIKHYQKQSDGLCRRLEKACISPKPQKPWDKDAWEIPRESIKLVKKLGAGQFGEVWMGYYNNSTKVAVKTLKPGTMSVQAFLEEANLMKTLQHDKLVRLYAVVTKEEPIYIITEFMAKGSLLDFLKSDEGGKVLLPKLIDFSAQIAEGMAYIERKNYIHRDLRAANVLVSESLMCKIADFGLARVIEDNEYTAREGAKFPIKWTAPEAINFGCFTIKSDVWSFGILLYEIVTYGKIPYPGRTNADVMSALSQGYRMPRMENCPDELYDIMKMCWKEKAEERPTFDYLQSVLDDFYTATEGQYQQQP

Assays:
[1] = target: Scimp (full-length Scimp; Slp65/76 and CSK-interacting membrane protein) (mouse (endogenous in BMMs)) (UniProt Q3UU41); experiment: co-IP; rabbit anti-Scimp antibody on protein G plus agarose, 1 h at 4°C; lysates of CSF-1-BMMs from WT and Scimp TV1 mice primed overnight with GM-CSF (10 ng/mL) and stimulated with LPS (10 ng/mL) over a time course; lysis buffer 20 mM TRIS pH 7.4, 150 nM NaCl (so in the source), 1% NP40, 5% glycerol; western blot for TLR4 and Lyn
[2] = target: Scimp translational variant 1 (Scimp TV1) (mouse (endogenous in BMMs)) (UniProt Q3UU41); experiment: as above

binding [1] | binding [2] | Substance
binds | – | TLR4 (from UniProt Q9QUK6 26-835) (receptor)
binds | binds | Lyn (from UniProt P25911 1-512) (enzyme)
